# Data from patent US4687840A, “Hypotensive active peptides” (Texas Tech University Health Sciences Center, priority 1986, dated 1987).
# At least one peptide structure holds a part that was inferred or is arguable (an end, a ring closure or a residue). Peptide text beside a SMILES is read from it.
# Tested on: Mongrel dogs
# Assay: dog blood pressure assay
# Type: in vivo
# Details: dose 3 × 10^-9 moles/kg, mean of 4 replications
smiles,measurement,value
N=C(N)NCCC[C@H](NC(=O)[C@H](Cc1ccccc1)NC(=O)[C@@H]1CCCN1C(=O)[C@H](CO)NC(=O)[C@H](Cc1ccccc1)NC(=O)CNC(=O)[C@@H]1CCCN1C(=O)[C@@H]1CCCN1C(=O)[C@@H](N)CCCNC(=N)N)C(=O)O [Bradykinin] (H-RPPGFSPFR-OH),Maximum Decrease in Blood Pressure,44 mmHg
